Here are results for 62 compounds from PubChem BioAssay AID445 (National Center for Advancing Translational Sciences (NCATS), 2006).

This is one part of the list. Shown are side measurements of this screen, not its main read-out; they come without a call. The list favours compounds with an active or inconclusive main result. Words in brackets tell the shape of the fitted curve; partial curves, single points and poor fits give uncertain potencies.

A short description of this test: IkB Signaling. The settings on record: ABC-DLBCL IkBa-CBG/CBR dual luciferase ratio (green luciferase fused to IkBa over red control in OCI-Ly3 lymphoma cells), 4 h. The essentials:
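Luminescence ratio of IκBα-fused green versus native red beetle luciferase in OCI-Ly3 cells, 4 h post-doxycycline with compound; red signal alone, scaled from basal (0%) to zero light (-100%), flagged nonspecific or cytotoxic effects.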

[1] abbreviates: measured here: control luc red channel unless noted.

One may read the AC50 as the midpoint of the concentration-response curve, whichever way the signal moves. `CS(=O)(=O)N1CCc2cc(S(=O)(=O)Nc3ccc4oc5c(c4c3)CCCC5)ccc21`: under setting [1], the AC50 was 15.8 µM [falling, partial curve]. Turning to `Cc1ccc(N2CCN(C(=O)C3CCC(CNS(=O)(=O)c4ccc(Br)s4)CC3)CC2C)cc1` (stereo not drawn), the AC50 under setting [1] is 6.31 µM [falling, partial curve]. Still for that read-out and setting: with `COc1ccccc1NC(=O)c1ccccc1NC(=O)c1ccccc1` the figure was 0.126 µM [falling, full curve, poor fit]. The same measure, in the same setting: with `Cc1ccc(CN(C(=O)COc2ccc(C(C)(C)C)cc2)C2CCS(=O)(=O)C2)o1` (stereo not drawn) the figure was 25.1 µM [falling, single point]; with `COc1ccc(-c2c3c(nc4sc(C(=O)Nc5ccc(Cl)cc5)c(N)c24)CC(C)(C)CC3=O)cc1`, 15.8 µM [falling, partial curve].

`CCC(=NC(C)c1ccccc1)c1c(O)n(C)c(=O)n(C)c1=O` (stereo not drawn): the AC50 under setting [1] is 12.6 µM [falling, partial curve]. Same read-out and setting: the figure for `CCn1ccc2cc(S(=O)(=O)N3CCC(C(=O)NCCc4ccc(SC)cc4)CC3)ccc21` is 5.01 µM [falling, full curve]; for `CCc1cccc(C)c1NC(=O)CN1C(=O)c2c(c3ccccc3n2C)C1c1ccc(OC)cc1` (stereo not drawn) it is 25.1 µM [falling, partial curve].

As for `O=C1C(Cl)=C(N2CCOCC2)C(=O)N1c1cccc(Cl)c1`, the AC50 under setting [1] is 10 µM [falling, partial curve]. Same read-out and setting: the figure for `COc1ccc(-c2nc(CCNC(=O)c3cccs3)cs2)cc1OC` is 20 µM [falling, single point]; for `CCOc1ccc(C(=O)Nc2ccc(-c3nc4cc(C(C)C)ccc4o3)cc2)cc1Cl` it is 2 µM [falling, full curve]; for `CCc1cccc(NC(=O)c2nc(-c3ccncc3)no2)c1` it is 1 µM [falling, partial curve]. Still for that read-out and setting: with `CCOC(=O)c1cccc(NC(=O)CN(c2ccc(OC)cc2)S(=O)(=O)c2c(C)noc2C)c1` the figure was 7.94 µM [falling, partial curve]. `CCOC(=O)Cc1nnc2c(Nc3ccccc3F)nc3nonc3n12`: the AC50 reads like this: (measured here: IkB-luc green channel) 39.8 µM [falling, single point]; (measured here: control luc red channel) 25.1 µM [falling, partial curve]. Turning to `Fc1cccc(NCc2cccn2-c2nnc(N3CCOCC3)s2)c1`, the AC50 under setting [1] is 1.58 µM [falling, partial curve].

Turning to `Cc1ccc(NCc2cccn2-c2nnc(N3CCC(C(=O)NCCc4ccccc4)CC3)s2)cc1`, under setting [1], the AC50 was 0.158 µM [falling, full curve].

In the case of `CCNC(=O)c1cnc2sc(N3CCC(C)CC3)nn2c1=O`, the AC50 under setting [1] was 10 µM [rising, full curve]. Consider `Cc1ccc2c(c1)N(C(=O)N1CCC(C(=O)NCCC3=CCCCC3)CC1)CC(C)O2` (stereo not drawn), for which, under setting [1], the AC50 was 31.6 µM [falling, single point]. Still for that read-out and setting: the figure for `Cc1c(C(=O)N2CCCC2)oc2c1-c1nn(CC(=O)NCc3cccc(F)c3)cc1CC2` is 25.1 µM [falling, single point]. On the same count and under the same terms, the figure for `O=C(Nc1cccc(Cl)c1)c1ccc2nc(Cc3ccccc3)oc2c1` is 31.6 µM [falling, partial curve]; for `Cc1ncc(COC(=O)C(C)C)c2cc(C(=O)Nc3ccccc3C(F)(F)F)c(=O)oc12` it is 39.8 µM [falling, single point]; for `CCCCn1c(CNC(=O)C23CC4CC(CC(C4)C2)C3)nnc1SCC(=O)Nc1ccccc1` it is 31.6 µM [falling, single point]. Take `CCOc1ccc(CCNc2ncnc3onc(-c4ccc(F)cc4)c23)cc1OCC`: under setting [1], the AC50 was 39.8 µM [falling, single point].

For `Cc1cccc(N2C(=O)CS(=O)(=O)C23C(=O)N(C)c2ccccc23)c1` (stereo not drawn), the AC50 under setting [1] is 39.8 µM [falling, single point].

Take `Nc1c(NC2CCCCC2)c2ccccc2oc1=O`: under setting [1], the AC50 is 12.6 µM [falling, partial curve]. Still for that read-out and setting: the figure for `CC1=C(C(N)=O)C(c2cccc(F)c2)n2nc(SCc3ccccc3)nc2N1` (stereo not drawn) is 5.01 µM [rising, single point]; for `NC(=O)SCC(=O)Nc1cccc(Cl)c1` it is 12.6 µM [falling, partial curve]; for `CCc1ccc(C(=O)c2cnc3ccc(C)cc3c2S(=O)(=O)c2ccc(OC)cc2)cc1` it is 0.251 µM [falling, full curve]. Still for that read-out and setting: with `CCCCc1ccc(C(=O)Nc2ccc3nc(N(CC)CC)cc(C)c3c2)cc1` the figure was 0.251 µM [falling, full curve]; with `O=C(CCCn1c(=O)c2sccc2n(Cc2ccc(F)cc2Cl)c1=O)NCc1ccc2c(c1)OCO2`, 0.00501 µM [falling, full curve, poor fit].

Consider `O=C(CSc1nnc(-c2ccccc2)o1)N1CCCc2ccccc21`, for which the AC50 under setting [1] was 25.1 µM [falling, single point]. For the compound `O=C(CCc1ccc(S(=O)(=O)N2CCOCC2)cc1)OCc1nc2ccccc2s1`, under setting [1], the AC50 was 7.94 µM [falling, full curve]. On the same count and under the same terms, the figure for `Cc1ccc(C)c(N2CCN(C(=O)Cn3nc(Cc4cccnc4)c4ccccc4c3=O)CC2)c1` is 20 µM [falling, single point]; for `CCOC(=O)N1CCc2c(sc3c2c(=O)n(-c2ccc(Cl)cc2)c(=O)n3CC(=O)Nc2ccccc2)C1` it is 12.6 µM [falling, partial curve]; for `CCC(=O)Oc1cccc(C(=O)Nc2ccc(-c3nnc(-c4ccco4)o3)cc2)c1` it is 7.94 µM [falling, full curve, poor fit]. The same measure, in the same setting: with `COc1ccccc1-n1c(CNC(=O)c2ccccc2)nnc1SCC(=O)Nc1nnc(C)s1` the figure was 3.98 µM [falling, full curve]; with `O=C(c1ccccc1)c1ccc2nc(Nc3ccccc3Cl)c3nncn3c2c1`, 20 µM [rising, partial curve]. Still for that read-out and setting: with `CCOC(=O)c1c(C)oc2nc(C)nc(NCc3cccc(OC)c3)c12` the figure was 39.8 µM [falling, single point]; with `CCOC(=O)c1cc(OC(=O)c2ccc(OC)c(OC)c2)n(-c2ccccc2)n1`, 39.8 µM [falling, single point].

For the compound `COC(=O)c1[nH]c2cc(OC)ccc2c1NC(=O)CCN1CCN(c2cccc(C)c2C)CC1`, under setting [1], the AC50 was 15.8 µM [falling, partial curve]. Consider `CCn1c(=O)cc(SCC(=O)N2CCN(c3cc(C)ccc3C)CC2)c2ccccc21`, for which the AC50 under setting [1] was 15.8 µM [falling, partial curve]. As for `Cc1nc2cccnc2n1-c1cccc(C(=O)NCCc2ccc(Cl)cc2)c1`, the AC50 under setting [1] was 25.1 µM [falling, partial curve].

In the case of `O=C(Cc1cccs1)NCCn1ccc2ccccc21`, the AC50 under setting [1] was 398 nM [falling, full curve] [measured here: IkB-luc green channel]. Take `O=C(CN1CCOc2ccccc21)N1CCC(Cc2ccccc2)CC1`: the AC50 under setting [1] was 15.8 µM [falling, partial curve]. On the same count and under the same terms, with `CCC(=O)N1CCCc2cc(S(=O)(=O)Nc3ccc(C)c(C)c3)ccc21` the figure was 25.1 µM [falling, partial curve, poor fit]; with `O=C(Nc1ccc2nc(SCC(=O)N3CCCc4ccccc43)sc2c1)c1ccc(F)cc1`, 7.94 µM [falling, partial curve].

Turning to `CCCCN(CC)C(=O)Cn1c(=O)n(-c2ccc(OCC)cc2)c(=O)c2c3c(sc21)CCCC3`, under setting [1], the AC50 was 25.1 µM [falling, partial curve]. The same measure, in the same setting: with `Cc1c(C(=O)Nc2ccc(Br)cc2F)sc2ncnc(N(C)C3CCCCC3)c12` the figure was 39.8 µM [falling, single point].

As for `CC(C)(C)c1ccc(NC(=O)CSc2nnc3scc(-c4ccccc4)n23)cc1`, the AC50 under setting [1] is 10 µM [falling, partial curve]. Still for that read-out and setting: with `CCOC(=O)c1cnc2c(OC)cccc2c1Nc1cccc(O)c1` the figure was 31.6 µM [falling, partial curve]. For `COc1ccc(C(=O)Cn2nnc(-c3ccccc3NC(=O)C3CC3)n2)cc1`, the AC50 under setting [1] is 31.6 µM [falling, single point]. The same measure, in the same setting: with `Cc1cc(C)c2c(C)c(C(=O)N3CCC(c4nc5ccccc5s4)CC3)oc2c1` the figure was 10 µM [falling, partial curve]. On to `Cc1cc(-c2nnc3n2N=C(c2ccc(-c4ccccc4)cc2)CS3)n[nH]1`, for which the AC50 under setting [1] is 20 µM [falling, partial curve].

Regarding `COCCCNC(=O)c1cc(-c2cccnc2)nc2ccc(S(=O)(=O)N3CCC(C)CC3)cc12`, the AC50 under setting [1] was 1 µM [rising, full curve, poor fit]. `CN1C(=O)C2(c3ccccc31)N(c1cccc(F)c1)C(=O)CS2(=O)=O` (stereo not drawn): under setting [1], the AC50 was 39.8 µM [falling, single point].

As to `Clc1ccccc1CNc1nc2ccccc2c2nc(-c3cccnc3)nn12`, the AC50 under setting [1] is 7.94 µM [rising, single point]. On to `COc1ccc(Cl)cc1NC(=O)c1c(NCc2sccc2C)sc2c1CCCC2`, for which the AC50 under setting [1] is 39.8 µM [rising, single point] [measured here: IkB-luc green channel]. For `COc1ccc(N2C(=O)CC(Cc3ccccc3)C2=O)cc1` (stereo not drawn), the AC50 under setting [1] is 25.1 µM [falling, partial curve]. Consider `COc1ccc(OC)c(CNS(=O)(=O)c2c(C(=O)N3CCCCCC3)c(C)n(C)c2C)c1`, for which, under setting [1], the AC50 was 15.8 µM [falling, partial curve, poor fit].

As for `O=S(=O)(c1ccc(Br)cc1)c1nc(-c2cccs2)oc1SCc1ccccc1F`, under setting [1], the AC50 was 0.0398 µM [falling, full curve, poor fit]. As for `CCc1ccc(N(CC)C(=O)Cn2c(=O)oc3ccccc32)cc1`, the AC50 under setting [1] is 0.316 µM [falling, partial curve]. On the same count and under the same terms, the figure for `COc1cccc2cc(C(=O)NCCc3c(C)[nH]c4ccc(Br)cc34)c(=O)oc12` is 7.94 µM [falling, full curve].
